By IC50 is commonly meant the concentration that gives 50% inhibition.

Assay [1] deals with MEF normal mouse fibroblast cells. The assay is classed as cell-based. As to conditions: 72 h, MTT assay. In general terms: Tetrazolium assays rely on reduction of a dye to a coloured formazan, in cell work by metabolically active cells.
The subject of assay [2] is HS68 normal human fibroblast cells. The assay is classed as cell-based. Particulars: 72 h, MTT assay.
For assay [3], the system named is A549 human lung cancer cells. The assay can be described thus: Cell proliferation (MTT) assay, cancer cells. Particulars: read-out: IC50 (μM) A549, 72 h.

On to `O=C(CCCCCCC(=O)Nc1ccccc1)NO` [SAHA, suberoylanalide hydroxamic acid, reference compound], for which the results for the IC50 in assay [1], in assay [2] and in assay [3] were 4.4 ± 1.4 µM, 4.6 ± 0.7 µM and 4.5 ± 0.8 µM, respectively.

For the origin of these results see US9353061B2, “3,5,N-trihydroxy-alkanamide and derivatives: method for making same and use thereof” (Academia Sinica, priority 2012, dated 2016).
